Laboratory results reported in patent US20030049211A1, “Remedies and preventives for dental diseases” (priority 2000, published 2003).

System: nude rat implanted with human large cell lung carcinoma LC-6
Assay: Histopathological change in the dentin of lower incisor teeth (HE stain)
Format: in vivo
Details: LC-6-implanted nude rats
Description: As a model animal, a nude rat implanted with human large cell lung carcinoma LC-6 [purchased from the Central Institute for Experimental Animals] was used. […] The human large cell lung carcinoma LC-6 was subcultured in vivo using a BALB/c-nu/nu nude mouse (CLEA Japan, Inc.).
8-week-old nude rats (F344/N Jcl-rnu) were implanted with LC-6 and these implanted-animals were divided into: a lesion control group (LC-6 group: n=5); an anti-PTHrP antibody administration group (antibody group: n=5); and, as a control agent, a commercially available therapeutic agents for hypercalcemia, Alendronate, administration group (ALN group). A non-treated control group (normal group) comprising rats of the same lineage and same week-old without the implantation of LC-6 was also provided. From the fifth week to the tenth week after the LC-6 implantation, PBS (1 ml/kg) to the LC-6 group, the anti-PTHrP antibody (3 mg/kg) to the antibody group, and ALN (2.5 mg/kg) to the ALN group, were respectively intravenously administered. Administration was carried out once a week for the LC-6 group and for the antibody group (6 times in total) and twice a week for the ALN group (12 times in total). The animals were bred until the twelfth week after the tumor implantation and then subjected to the autopsy (see Example 2). […]

NCCCC(O)(P(=O)(O)O)P(=O)(O)O [ALN, Alendronate]
single cell necrosis of the pulp cell (ALN 2.5 mg/kg i.v. twice a week (12 times)): observed | lesion of incisor tooth (histopathological finding) (i.v. from fifth to tenth week after implantation, autopsy at twelfth week, antibody 3 mg/kg once a week, ALN 2.5 mg/kg twice a week): not improved
